Data taken from article PMC1839166, “Type III Effector Activation via Nucleotide Binding, Phosphorylation, and Host Target Interaction” (PLoS Pathogens, 2007).
Results are given in words; binding and its absence hold for the method and conditions named. Some binding calls cover weakened binding; strength is not graded here.

Amino acid sequences for entries named in this document (tags omitted).
UniProt Q8P8X2: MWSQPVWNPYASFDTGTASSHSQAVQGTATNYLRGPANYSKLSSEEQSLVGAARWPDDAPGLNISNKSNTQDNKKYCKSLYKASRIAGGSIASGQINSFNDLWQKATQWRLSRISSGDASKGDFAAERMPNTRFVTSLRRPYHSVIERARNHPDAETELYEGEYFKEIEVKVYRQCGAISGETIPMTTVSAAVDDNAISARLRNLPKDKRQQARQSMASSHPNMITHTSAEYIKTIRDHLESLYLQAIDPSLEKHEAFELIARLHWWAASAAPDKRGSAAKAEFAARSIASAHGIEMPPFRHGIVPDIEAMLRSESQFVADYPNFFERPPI

Target: Xanthomonas campestris campestris avirulence protein C (AvrXccC), in yeast two-hybrid (Xanthomonas campestris pv. campestris) (UniProt Q8P8X2)
Assay: two-hybrid; yeast two-hybrid, unpublished data

B1: B42AD-RIN4 (protein, UniProt Q8GYN5 1-211)
chain: MARSNVPKFGNWEAEENVPYTAYFDKARKTRAPGSKIMNPNDPEYNSDSQSQAPPHPPSSRTKPEQVDTVRRSREHMRSREESELKQFGDAGGSSNEAANKRQGRASQNNSYDNKSPLHKNSYDGTGKSRPKPTNLRADESPEKVTVVPKFGDWDENNPSSADGYTHIFNKVREERSSGANVSGSSRTPTHQSSRNPNNTSSCCCFGFGGK
With B1 the binding was “binds”.
